Consider six molecules from article PMC6052109.

Protein sequences, listed by entry. Tags and fused reporters are not part of them. Lines headed by an entry give the natural chain unless they say otherwise; changes in a name come on top. Chains listed by the source or under a name are the forms on record and can include a tag or linker.
UniProt Q8TDY2: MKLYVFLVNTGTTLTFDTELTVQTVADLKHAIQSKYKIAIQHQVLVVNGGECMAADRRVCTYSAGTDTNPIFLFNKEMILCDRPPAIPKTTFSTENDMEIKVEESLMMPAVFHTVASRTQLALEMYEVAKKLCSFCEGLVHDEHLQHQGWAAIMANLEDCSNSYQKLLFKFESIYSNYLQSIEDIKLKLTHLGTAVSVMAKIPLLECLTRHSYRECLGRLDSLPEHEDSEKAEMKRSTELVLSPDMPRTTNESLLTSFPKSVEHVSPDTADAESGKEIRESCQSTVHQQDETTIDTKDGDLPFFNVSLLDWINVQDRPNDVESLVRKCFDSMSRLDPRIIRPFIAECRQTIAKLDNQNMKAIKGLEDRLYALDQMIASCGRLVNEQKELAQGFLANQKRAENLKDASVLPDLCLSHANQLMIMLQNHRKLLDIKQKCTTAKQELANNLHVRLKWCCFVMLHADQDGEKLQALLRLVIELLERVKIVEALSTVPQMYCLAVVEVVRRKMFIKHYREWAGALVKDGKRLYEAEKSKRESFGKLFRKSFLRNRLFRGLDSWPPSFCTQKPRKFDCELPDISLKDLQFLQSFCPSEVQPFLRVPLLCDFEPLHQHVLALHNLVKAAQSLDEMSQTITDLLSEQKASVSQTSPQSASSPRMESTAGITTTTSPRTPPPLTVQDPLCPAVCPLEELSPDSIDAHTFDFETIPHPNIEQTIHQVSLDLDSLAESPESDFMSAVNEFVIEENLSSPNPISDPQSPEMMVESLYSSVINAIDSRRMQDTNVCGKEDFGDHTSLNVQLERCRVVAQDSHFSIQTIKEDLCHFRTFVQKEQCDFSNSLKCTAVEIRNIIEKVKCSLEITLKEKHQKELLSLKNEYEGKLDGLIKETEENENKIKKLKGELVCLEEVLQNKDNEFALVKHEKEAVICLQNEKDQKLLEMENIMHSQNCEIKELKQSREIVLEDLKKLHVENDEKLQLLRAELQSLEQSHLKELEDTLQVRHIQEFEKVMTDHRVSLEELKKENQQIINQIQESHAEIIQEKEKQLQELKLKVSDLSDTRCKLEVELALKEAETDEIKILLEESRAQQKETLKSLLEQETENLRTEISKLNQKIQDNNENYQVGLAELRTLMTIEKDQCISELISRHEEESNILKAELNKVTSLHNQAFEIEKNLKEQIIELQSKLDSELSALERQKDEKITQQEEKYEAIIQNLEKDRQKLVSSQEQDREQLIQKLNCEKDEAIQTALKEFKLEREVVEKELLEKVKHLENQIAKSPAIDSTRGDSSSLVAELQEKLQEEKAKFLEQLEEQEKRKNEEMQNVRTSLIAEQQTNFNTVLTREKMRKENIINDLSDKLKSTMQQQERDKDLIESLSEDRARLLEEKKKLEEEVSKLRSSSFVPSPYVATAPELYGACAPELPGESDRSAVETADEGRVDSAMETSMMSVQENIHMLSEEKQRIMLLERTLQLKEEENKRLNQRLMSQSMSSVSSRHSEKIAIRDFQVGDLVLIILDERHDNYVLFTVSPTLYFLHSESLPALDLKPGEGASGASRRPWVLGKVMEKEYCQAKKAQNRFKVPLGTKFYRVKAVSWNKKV
UniProt Q9ESK9: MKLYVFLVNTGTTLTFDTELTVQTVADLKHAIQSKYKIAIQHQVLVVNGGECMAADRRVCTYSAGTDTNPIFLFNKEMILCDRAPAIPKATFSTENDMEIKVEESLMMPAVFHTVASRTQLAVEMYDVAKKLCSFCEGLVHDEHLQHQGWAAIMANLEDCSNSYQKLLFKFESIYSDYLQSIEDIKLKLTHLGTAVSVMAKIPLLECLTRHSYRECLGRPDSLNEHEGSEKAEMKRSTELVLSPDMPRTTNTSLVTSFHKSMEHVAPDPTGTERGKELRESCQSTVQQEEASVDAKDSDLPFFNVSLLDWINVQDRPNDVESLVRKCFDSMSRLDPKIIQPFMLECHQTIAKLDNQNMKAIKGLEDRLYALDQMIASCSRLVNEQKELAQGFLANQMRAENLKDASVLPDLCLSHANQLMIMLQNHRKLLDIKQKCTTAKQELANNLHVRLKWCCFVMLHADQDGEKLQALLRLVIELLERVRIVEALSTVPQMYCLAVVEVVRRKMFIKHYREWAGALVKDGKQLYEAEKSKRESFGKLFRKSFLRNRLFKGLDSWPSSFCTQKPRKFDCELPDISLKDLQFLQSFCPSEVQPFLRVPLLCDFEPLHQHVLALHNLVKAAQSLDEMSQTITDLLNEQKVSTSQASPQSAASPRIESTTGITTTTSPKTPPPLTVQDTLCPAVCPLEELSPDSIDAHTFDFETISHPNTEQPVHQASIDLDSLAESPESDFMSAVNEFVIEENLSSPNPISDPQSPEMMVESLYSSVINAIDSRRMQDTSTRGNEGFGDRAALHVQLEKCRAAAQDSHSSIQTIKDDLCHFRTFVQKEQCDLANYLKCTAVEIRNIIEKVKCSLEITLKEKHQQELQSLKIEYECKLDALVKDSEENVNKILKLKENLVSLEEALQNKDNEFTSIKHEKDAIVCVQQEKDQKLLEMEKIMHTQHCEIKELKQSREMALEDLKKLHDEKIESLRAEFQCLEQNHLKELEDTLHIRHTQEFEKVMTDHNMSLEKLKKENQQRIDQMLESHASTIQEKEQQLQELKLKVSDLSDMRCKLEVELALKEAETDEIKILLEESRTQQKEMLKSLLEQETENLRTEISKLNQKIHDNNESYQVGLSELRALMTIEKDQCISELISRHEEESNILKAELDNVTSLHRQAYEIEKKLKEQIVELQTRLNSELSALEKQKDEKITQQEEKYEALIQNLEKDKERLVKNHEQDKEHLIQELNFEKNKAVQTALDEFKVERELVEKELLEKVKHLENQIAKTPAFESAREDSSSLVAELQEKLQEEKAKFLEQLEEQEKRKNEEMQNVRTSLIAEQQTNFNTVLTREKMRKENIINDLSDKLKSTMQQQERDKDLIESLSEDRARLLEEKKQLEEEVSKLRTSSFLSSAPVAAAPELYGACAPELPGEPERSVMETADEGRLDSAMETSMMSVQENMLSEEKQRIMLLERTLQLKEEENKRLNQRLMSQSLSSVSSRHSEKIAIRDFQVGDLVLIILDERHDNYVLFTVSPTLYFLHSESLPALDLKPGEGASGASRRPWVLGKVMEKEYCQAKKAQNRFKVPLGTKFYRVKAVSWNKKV
HA-Tbkbp1 (TBK-binding protein 1, mouse, wild type) (A2A9T0-2, form named): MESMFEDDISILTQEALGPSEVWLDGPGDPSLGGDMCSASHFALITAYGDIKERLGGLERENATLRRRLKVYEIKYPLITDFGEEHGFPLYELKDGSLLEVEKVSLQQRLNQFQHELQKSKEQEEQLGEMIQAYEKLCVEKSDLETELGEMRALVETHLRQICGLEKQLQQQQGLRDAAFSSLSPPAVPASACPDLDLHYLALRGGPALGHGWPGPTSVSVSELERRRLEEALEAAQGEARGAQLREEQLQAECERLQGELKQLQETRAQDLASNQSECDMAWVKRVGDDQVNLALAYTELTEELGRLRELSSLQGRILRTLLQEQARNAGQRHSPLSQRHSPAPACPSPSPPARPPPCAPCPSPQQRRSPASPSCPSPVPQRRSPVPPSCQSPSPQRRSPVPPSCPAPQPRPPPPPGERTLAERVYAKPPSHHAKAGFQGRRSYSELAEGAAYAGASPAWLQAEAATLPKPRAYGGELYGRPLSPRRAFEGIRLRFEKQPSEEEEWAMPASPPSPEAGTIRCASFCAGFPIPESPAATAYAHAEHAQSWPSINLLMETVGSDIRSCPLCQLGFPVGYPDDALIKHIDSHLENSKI
HA-Tbkbp1 Y298A (A2A9T0-2, form named): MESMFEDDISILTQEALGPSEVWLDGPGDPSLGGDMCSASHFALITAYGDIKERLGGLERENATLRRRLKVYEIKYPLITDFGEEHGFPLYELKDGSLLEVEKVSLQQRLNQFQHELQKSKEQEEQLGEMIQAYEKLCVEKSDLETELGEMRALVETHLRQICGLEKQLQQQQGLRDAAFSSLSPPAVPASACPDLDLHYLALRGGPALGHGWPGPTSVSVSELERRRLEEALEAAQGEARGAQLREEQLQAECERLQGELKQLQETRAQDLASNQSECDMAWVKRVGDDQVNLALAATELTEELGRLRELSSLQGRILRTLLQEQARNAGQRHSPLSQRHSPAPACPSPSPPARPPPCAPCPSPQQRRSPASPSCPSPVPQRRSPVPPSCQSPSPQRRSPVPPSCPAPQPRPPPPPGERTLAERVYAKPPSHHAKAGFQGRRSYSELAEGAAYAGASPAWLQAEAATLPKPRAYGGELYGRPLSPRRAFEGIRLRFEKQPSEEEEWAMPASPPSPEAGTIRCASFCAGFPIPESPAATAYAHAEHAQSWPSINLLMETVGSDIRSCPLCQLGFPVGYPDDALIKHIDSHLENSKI
HA-Tbkbp1 1-330 (truncation mutant) (A2A9T0-2, form named): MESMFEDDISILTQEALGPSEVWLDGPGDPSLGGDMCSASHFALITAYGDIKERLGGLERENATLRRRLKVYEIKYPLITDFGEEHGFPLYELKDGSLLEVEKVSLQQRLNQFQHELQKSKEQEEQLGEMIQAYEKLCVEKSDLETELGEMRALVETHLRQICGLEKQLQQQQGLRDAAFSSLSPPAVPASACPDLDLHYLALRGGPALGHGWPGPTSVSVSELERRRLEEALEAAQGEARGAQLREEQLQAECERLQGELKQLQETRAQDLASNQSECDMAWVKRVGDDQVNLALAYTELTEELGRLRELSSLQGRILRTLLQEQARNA

Test [1] deals with T1, Myc-Ulk1 (UNC51-like kinase 1) (UniProt O70405).
T1 sequence: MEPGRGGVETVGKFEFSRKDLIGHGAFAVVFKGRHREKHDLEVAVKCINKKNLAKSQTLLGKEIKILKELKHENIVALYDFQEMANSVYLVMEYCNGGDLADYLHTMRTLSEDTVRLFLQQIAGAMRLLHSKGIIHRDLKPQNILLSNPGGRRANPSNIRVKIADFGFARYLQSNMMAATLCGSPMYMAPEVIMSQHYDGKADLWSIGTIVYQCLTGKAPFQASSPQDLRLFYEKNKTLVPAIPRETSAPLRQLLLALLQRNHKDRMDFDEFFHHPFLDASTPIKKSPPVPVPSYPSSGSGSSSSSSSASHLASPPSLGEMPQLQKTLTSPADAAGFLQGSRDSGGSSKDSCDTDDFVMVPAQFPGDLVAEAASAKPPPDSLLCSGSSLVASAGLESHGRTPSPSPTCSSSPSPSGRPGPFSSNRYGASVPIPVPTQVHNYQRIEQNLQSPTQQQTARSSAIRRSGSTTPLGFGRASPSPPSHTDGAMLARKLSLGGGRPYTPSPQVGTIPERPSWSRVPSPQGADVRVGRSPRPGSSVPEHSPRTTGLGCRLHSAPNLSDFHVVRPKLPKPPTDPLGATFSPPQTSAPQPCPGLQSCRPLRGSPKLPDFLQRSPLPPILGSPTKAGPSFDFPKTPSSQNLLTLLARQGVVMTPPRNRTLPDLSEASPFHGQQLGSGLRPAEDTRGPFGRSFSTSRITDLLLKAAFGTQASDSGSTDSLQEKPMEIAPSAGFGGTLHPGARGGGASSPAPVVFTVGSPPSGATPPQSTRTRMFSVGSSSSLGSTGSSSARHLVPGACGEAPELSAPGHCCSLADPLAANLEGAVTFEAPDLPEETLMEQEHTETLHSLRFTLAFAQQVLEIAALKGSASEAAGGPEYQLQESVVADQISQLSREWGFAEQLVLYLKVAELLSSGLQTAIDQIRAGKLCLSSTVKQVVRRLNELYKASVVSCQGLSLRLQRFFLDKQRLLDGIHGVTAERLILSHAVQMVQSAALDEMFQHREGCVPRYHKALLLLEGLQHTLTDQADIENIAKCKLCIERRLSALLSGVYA
Kind of test: co-IP; lysates of HEK293 cells transfected with the indicated expression vectors (HA-Tbkbp1 or its mutants, Myc-Ulk1, 3xFLAG-FIP200, Flag-Ankrd28); immunoblot. In general terms: Immunoblotting shows a protein as a band on a membrane.

A further test has as its target 3xFLAG-FIP200 (UniProt Q8TDY2). Described as above.
Test [2] has as its target T2, Ulk1, endogenous in NKT hybridoma cells (mouse (endogenous in NKT1.2 hybridoma)) (UniProt O70405).
T2 sequence: T1 sequence
Kind of test: co-IP; endogenous proteins, lysates of NKT hybridoma cells (control shRNA or Tbkbp1 shRNA), untreated or stimulated with IL-15 (rapamycin in one panel); IP with anti-FIP200 or anti-Ulk1, control IgG as negative control; immunoblot.

The target of test [3] is FIP200, endogenous in NKT hybridoma cells (mouse (endogenous in NKT1.2 hybridoma)) (UniProt Q9ESK9). The description is as above.
Test [4] concerns the target HA-Tbkbp1 (TBK-binding protein 1, mouse, wild type) (mouse) (UniProt A2A9T0). Kind of test: co-IP; lysates of HEK293 cells transfected with the indicated expression vectors (HA-Tbkbp1 or its mutants, Myc-Ulk1, 3xFLAG-FIP200, Flag-Ankrd28); immunoblot.

Results are given in words; binding and its absence hold for the method and conditions named. Binding seen in cells or lysates may run through a third protein. Some entries that bind do so weakly or less than the wild type. For some assays here: Where a sequence is shown, tags or fusion partners need not be part of it.

With “HA-Tbkbp1 (TBK-binding protein 1, mouse, wild type) (from UniProt A2A9T0-2 1-596)”, the binding result (in test [1]; with 3xFLAG-FIP200) was “binds” each time.

Regarding “FIP200, endogenous in NKT hybridoma cells (from UniProt Q9ESK9 1-1588)”, in test [2], the binding entry is “binds”.

For the molecule “Tbkbp1, endogenous in NKT hybridoma cells (from UniProt A2A9T0-2 1-596)”, the binding result in test [3] and in test [2] was “binds” in each case.

Regarding “HA-Tbkbp1 Y298A (from UniProt A2A9T0-2 1-596)”, in test [1], the binding result was “binds”.

Turning to “HA-Tbkbp1 1-330 (truncation mutant) (from UniProt A2A9T0-2 1-330) (domain or fragment)”, the binding entry in test [1] is listed as “binds”.

B1: Flag-tagged Ankrd28 (protein, UniProt O15084 1-1053)
chain: MAFLKLRDQPSLVQAIFNGDPDEVRALIFKKEDVNFQDNEKRTPLHAAAYLGDAEIIELLILSGARVNAKDSKWLTPLHRAVASCSEEAVQVLLKHSADVNARDKNWQTPLHIAAANKAVKCAEALVPLLSNVNVSDRAGRTALHHAAFSGHGEMVKLLLSRGANINAFDKKDRRAIHWAAYMGHIEVVKLLVSHGAEVTCKDKKSYTPLHAAASSGMISVVKYLLDLGVDMNEPNAYGNTPLHVACYNGQDVVVNELIDCGAIVNQKNEKGFTPLHFAAASTHGALCLELLVGNGADVNMKSKDGKTPLHMTALHGRFSRSQTIIQSGAVIDCEDKNGNTPLHIAARYGHELLINTLITSGADTAKRGIHGMFPLHLAALSGFSDCCRKLLSSGFDIDTPDDFGRTCLHAAAAGGNLECLNLLLNTGADFNKKDKFGRSPLHYAAANCNYQCLFALVGSGASVNDLDERGCTPLHYAATSDTDGKCLEYLLRNDANPGIRDKQGYNAVHYSAAYGHRLCLQLIASETPLDVLMETSGTDMLSDSDNRATISPLHLAAYHGHHQALEVLVQSLLDLDVRNSSGRTPLDLAAFKGHVECVDVLINQGASILVKDYILKRTPIHAAATNGHSECLRLLIGNAEPQNAVDIQDGNGQTPLMLSVLNGHTDCVYSLLNKGANVDAKDKWGRTALHRGAVTGHEECVDALLQHGAKCLLRDSRGRTPIHLSAACGHIGVLGALLQSAASMDANPATADNHGYTALHWACYNGHETCVELLLEQEVFQKTEGNAFSPLHCAVINDNEGAAEMLIDTLGASIVNATDSKGRTPLHAAAFTDHVECLQLLLSHNAQVNSVDSTGKTPLMMAAENGQTNTVEMLVSSASAELTLQDNSKNTALHLACSKGHETSALLILEKITDRNLINATNAALQTPLHVAARNGLTMVVQELLGKGASVLAVDENGYTPALACAPNKDVADCLALILATMMPVSSSSPLSSLTFNAINRYTNTSKTVSFEALPIMRNEPSSYCSFNNIGGEQEYLYTDVDELNDSDSETY
As to B1, in test [4], the binding result is “binds”.
